From the supplement of paper PMC10849652
This is one part of the list.

The chains behind the UniProt entries cited, without tags or fusion partners. Where a name states a change or a piece, a line headed by the entry shows the natural chain unless it says otherwise.
UniProt P51809, whole entry, looked up: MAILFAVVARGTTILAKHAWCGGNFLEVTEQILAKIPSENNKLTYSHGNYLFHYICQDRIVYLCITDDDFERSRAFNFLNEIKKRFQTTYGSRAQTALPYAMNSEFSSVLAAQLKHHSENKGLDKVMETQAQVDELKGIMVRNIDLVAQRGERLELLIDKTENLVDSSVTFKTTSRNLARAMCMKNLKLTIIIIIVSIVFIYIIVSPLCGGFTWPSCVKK
UniProt Q15836, whole entry, looked up: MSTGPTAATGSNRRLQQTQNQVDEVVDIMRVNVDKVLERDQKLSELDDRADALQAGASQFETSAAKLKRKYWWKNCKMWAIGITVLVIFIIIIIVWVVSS
UniProt P22695: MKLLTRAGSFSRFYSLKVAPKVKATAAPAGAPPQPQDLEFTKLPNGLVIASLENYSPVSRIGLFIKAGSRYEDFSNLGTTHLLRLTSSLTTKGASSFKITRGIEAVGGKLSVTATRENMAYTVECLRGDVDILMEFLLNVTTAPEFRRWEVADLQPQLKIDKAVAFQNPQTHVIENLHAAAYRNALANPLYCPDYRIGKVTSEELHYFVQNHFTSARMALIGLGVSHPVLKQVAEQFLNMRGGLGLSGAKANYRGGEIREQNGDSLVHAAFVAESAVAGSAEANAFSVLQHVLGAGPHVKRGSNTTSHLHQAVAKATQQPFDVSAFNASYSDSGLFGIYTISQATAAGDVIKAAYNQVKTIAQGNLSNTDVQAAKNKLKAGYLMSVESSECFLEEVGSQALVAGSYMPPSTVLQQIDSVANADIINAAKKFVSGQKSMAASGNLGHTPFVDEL
UniProt Q99536: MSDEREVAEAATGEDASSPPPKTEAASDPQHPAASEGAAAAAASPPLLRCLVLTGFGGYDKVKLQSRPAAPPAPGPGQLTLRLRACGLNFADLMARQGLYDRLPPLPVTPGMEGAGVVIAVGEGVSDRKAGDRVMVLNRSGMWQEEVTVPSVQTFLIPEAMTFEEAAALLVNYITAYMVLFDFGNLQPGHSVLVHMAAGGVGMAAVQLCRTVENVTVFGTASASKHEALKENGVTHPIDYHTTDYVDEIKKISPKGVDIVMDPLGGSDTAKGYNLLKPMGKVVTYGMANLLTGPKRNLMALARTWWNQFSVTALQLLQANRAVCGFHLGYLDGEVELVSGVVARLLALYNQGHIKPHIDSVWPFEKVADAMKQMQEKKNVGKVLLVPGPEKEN
UniProt Q15853: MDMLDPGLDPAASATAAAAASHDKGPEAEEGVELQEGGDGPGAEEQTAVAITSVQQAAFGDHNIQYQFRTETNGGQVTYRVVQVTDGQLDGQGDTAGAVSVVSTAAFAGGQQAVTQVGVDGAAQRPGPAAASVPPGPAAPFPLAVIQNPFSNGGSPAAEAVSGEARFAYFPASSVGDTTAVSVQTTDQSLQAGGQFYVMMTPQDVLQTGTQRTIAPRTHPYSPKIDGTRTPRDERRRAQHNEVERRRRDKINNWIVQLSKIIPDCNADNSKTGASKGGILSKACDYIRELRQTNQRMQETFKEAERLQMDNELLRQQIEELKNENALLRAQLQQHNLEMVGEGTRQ
UniProt Q6UW78: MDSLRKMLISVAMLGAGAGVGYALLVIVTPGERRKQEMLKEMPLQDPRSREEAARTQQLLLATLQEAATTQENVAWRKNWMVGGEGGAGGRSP
UniProt Q969X6: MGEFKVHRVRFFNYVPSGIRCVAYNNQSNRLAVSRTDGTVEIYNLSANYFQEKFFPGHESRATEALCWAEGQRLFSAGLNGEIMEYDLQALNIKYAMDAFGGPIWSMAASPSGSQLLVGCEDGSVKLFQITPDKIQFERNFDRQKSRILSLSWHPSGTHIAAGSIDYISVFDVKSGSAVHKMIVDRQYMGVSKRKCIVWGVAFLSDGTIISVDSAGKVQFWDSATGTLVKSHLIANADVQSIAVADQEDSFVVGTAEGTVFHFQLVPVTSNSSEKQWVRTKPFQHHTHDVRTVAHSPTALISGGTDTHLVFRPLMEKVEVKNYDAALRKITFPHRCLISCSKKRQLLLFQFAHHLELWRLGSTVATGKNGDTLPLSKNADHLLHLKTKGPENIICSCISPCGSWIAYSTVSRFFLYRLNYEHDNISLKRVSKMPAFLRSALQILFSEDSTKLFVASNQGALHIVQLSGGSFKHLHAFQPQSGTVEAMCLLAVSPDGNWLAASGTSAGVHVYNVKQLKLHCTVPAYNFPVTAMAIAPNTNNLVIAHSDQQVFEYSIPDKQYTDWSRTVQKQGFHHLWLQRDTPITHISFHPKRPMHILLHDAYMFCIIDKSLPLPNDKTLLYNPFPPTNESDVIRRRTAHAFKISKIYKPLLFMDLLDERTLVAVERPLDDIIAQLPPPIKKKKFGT
UniProt Q96JH7: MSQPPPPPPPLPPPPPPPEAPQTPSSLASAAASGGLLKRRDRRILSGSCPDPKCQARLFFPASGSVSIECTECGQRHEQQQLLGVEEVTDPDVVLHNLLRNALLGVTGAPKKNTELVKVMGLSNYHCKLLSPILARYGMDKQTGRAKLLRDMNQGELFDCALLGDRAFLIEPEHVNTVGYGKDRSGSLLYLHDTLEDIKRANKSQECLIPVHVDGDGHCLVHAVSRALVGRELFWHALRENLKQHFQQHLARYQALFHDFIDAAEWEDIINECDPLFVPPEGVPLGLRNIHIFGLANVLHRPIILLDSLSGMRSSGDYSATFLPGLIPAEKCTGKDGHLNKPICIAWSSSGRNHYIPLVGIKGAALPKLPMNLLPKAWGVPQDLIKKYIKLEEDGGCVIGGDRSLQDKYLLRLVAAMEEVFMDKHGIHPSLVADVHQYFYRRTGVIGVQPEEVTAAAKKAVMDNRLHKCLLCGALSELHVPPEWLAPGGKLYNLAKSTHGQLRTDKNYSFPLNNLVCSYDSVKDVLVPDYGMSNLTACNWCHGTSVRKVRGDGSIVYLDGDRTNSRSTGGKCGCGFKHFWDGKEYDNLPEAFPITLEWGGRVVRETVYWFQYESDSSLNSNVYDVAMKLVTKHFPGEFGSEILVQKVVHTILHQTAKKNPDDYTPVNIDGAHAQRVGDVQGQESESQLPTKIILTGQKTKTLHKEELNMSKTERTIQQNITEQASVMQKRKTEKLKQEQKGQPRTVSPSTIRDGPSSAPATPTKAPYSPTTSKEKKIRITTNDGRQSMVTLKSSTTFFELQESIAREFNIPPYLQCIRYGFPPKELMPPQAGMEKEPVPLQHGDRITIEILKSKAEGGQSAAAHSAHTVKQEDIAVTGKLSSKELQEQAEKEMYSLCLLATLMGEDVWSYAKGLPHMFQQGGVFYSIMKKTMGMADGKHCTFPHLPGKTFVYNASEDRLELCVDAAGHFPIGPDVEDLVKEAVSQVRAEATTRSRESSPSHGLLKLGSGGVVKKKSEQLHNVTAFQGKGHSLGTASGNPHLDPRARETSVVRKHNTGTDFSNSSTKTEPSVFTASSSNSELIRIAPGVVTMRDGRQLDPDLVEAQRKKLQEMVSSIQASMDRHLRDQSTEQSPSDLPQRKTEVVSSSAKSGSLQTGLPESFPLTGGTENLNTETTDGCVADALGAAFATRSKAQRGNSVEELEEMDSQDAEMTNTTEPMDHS
UniProt Q9Y3A2: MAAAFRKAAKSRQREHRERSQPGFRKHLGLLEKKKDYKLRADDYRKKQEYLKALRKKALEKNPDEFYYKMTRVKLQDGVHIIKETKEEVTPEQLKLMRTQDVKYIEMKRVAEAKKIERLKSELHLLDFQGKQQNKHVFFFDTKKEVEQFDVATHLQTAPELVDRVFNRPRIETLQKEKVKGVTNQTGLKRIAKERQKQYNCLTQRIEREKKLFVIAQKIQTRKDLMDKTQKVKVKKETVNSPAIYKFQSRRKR
UniProt Q8TED0: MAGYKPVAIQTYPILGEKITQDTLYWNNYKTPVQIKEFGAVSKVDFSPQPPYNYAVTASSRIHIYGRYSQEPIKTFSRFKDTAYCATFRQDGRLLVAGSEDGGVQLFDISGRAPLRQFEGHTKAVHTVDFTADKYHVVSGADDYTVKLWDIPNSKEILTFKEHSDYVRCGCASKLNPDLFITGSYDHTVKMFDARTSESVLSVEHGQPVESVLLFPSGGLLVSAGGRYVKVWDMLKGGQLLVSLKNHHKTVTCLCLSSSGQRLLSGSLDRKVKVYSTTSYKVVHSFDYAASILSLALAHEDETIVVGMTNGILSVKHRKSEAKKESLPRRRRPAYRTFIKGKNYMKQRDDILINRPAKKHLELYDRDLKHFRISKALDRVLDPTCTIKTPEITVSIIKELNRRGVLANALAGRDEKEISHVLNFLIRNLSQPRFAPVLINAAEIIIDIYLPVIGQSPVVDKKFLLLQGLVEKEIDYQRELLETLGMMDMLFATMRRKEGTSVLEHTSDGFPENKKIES
UniProt Q9ULK5: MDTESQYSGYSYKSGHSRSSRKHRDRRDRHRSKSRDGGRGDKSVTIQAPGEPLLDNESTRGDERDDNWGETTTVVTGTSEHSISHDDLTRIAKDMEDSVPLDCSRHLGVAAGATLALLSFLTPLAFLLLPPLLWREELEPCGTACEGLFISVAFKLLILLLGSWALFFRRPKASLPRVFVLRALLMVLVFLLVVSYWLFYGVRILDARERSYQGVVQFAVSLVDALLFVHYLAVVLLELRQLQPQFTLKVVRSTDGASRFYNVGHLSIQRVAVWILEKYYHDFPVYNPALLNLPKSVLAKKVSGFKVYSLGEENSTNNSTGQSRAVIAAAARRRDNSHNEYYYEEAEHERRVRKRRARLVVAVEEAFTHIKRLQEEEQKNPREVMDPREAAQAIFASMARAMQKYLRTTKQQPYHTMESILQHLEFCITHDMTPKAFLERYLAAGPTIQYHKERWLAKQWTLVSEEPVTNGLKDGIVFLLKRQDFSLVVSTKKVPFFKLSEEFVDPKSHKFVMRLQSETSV
UniProt Q9BTM9: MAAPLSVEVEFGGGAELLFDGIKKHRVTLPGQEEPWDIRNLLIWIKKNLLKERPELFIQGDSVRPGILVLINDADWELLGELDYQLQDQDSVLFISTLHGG
UniProt Q9BRU9: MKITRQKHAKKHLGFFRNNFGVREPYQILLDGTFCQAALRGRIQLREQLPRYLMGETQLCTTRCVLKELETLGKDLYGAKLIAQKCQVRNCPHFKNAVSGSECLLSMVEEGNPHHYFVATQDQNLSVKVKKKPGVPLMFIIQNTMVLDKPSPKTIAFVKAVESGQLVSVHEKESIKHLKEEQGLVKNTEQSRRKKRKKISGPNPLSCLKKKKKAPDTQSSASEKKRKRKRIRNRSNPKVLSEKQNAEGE
UniProt O14949: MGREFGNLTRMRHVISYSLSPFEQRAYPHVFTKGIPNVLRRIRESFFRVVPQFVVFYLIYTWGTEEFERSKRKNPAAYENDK
UniProt Q14694, whole entry, looked up: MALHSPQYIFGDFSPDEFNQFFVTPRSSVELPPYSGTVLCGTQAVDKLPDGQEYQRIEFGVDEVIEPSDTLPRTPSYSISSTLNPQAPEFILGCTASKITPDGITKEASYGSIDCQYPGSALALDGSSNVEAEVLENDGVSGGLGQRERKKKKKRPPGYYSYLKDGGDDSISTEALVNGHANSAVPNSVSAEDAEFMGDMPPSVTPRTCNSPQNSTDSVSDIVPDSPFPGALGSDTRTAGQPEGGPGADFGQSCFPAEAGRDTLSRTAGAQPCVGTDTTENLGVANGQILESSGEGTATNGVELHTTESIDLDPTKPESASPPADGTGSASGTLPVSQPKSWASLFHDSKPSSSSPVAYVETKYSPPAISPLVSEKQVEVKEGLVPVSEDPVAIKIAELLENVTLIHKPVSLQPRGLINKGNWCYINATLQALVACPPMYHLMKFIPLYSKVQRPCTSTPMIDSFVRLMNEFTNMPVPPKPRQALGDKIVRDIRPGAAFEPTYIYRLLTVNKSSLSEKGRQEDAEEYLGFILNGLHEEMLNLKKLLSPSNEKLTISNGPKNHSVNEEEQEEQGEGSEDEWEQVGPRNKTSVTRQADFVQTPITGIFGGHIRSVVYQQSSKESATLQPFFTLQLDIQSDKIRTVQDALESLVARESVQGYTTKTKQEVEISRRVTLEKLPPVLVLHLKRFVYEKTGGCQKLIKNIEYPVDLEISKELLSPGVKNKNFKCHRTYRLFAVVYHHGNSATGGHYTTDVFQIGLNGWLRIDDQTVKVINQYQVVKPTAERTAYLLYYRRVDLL
UniProt O95292, whole entry, looked up: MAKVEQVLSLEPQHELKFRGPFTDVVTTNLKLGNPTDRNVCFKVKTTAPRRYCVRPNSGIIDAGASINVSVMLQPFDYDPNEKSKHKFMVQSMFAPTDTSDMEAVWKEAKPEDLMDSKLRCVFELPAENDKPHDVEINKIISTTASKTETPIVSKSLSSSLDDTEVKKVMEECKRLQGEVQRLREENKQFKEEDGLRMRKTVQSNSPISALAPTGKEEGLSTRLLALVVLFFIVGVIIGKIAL
UniProt Q9BQ65: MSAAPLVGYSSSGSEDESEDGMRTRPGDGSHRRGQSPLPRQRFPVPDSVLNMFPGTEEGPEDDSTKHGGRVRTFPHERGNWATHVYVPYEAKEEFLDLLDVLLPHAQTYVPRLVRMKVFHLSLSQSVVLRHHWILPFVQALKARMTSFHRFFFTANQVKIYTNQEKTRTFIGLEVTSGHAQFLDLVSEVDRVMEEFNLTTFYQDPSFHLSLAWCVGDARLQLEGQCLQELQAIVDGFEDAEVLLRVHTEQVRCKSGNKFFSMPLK

Legend:
Test in all cases: log2 fold change, soluble protein after heating vs DMSO (PISA); higher = thermal stabilisation; K562 lysate, 10 uM; active = over 0.2 and 3.5 SD of the protein, either way, in both replicates (recomputed)
lapatinib = compound: CS(=O)(=O)CCNCc1ccc(-c2ccc3ncnc(Nc4ccc(OCc5cccc(F)c5)c(Cl)c4)c3c2)o1 [lapatinib]
How it was run: (§1)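 K562 pellets were dounce-homogenised in PBS pH 7.4 with 1 mM MgCl2, and the crude extract at 1 mg/mL protein was treated with 10 μM compound for 30 min. Aliquots were heated for 3 min across 48°C-58°C, pooled, and brought to 0.5% NP-40 at 4°C; soluble protein was the supernatant after 21,000xg for 90 min. Soluble protein was quantified by TMTpro 16plex LC-MS/MS with channel sums equalised, and reported as log2 fold change in thermal stability against DMSO controls, with values from duplicates.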

pictilisib = compound: CS(=O)(=O)N1CCN(Cc2cc3nc(-c4cccc5[nH]ncc45)nc(N4CCOCC4)c3s2)CC1 [pictilisib]
How it was run: as §1

crizotinib = compound: C[C@@H](Oc1cc(-c2cnn(C3CCNCC3)c2)cnc1N)c1c(Cl)ccc(F)c1Cl [crizotinib]
How it was run: as §1

[1] = compound: C[C@H](C1=CC=C(C=C1)C(=O)NC2=C3C=CNC3=NC=C2)N
How it was run: as §1

duvelisib = compound: C[C@H](Nc1ncnc2nc[nH]c12)c1cc2cccc(Cl)c2c(=O)n1-c1ccccc1 [duvelisib]
How it was run: as §1

gandotinib = compound: Cc1cc(Nc2cc(CN3CCOCC3)c3nc(C)c(Cc4ccc(Cl)cc4F)n3n2)n[nH]1 [gandotinib]
How it was run: as §1

tozasertib = compound: Cc1cc(Nc2cc(N3CCN(C)CC3)nc(Sc3ccc(NC(=O)C4CC4)cc3)n2)n[nH]1 [tozasertib]
How it was run: as §1

doramapimod = compound: Cc1ccc(-n2nc(C(C)(C)C)cc2NC(=O)Nc2ccc(OCCN3CCOCC3)c3ccccc23)cc1 [doramapimod]
How it was run: as §1

bafetinib = compound: Cc1ccc(NC(=O)c2ccc(CN3CC[C@H](N(C)C)C3)c(C(F)(F)F)c2)cc1Nc1nccc(-c2cncnc2)n1 [bafetinib]
How it was run: as §1

[2] = compound: Cc1cccc(CC(=O)N2CCc3c2ccc(-c2cn(C)c4ncnc(N)c24)c3F)n1
How it was run: as §1

Measured: log2 fold change

VAMP7 (UniProt P51809)
inactive: lapatinib 0.018 | pictilisib -0.05 | crizotinib 0.004 | [1] -0.06 | duvelisib 0.007 | gandotinib 0.002 | tozasertib -0.012 | doramapimod 0.051 | bafetinib 0.004 | [2] 0.02

VAMP3 (UniProt Q15836)
inactive: lapatinib 0.064 | pictilisib -0.011 | crizotinib 0.044 | [1] -0.107 | duvelisib -0.091 | gandotinib 0.014 | tozasertib 0.007 | doramapimod -0.077 | bafetinib 0.035 | [2] 0.017

ULK3 isoform 4 (UniProt Q6PHR2)
inactive: lapatinib 0.059 | pictilisib -0.008 | crizotinib -0.088 | [1] 0.113 | duvelisib 0.065 | gandotinib -0.08 | tozasertib 0.059 | doramapimod -0.15 | bafetinib 0.041 | [2] 0.354

UQCRC2 (UniProt P22695)
inactive: lapatinib -0.04 | pictilisib -0.008 | crizotinib 0.019 | [1] -0.011 | duvelisib 0.001 | gandotinib -0.004 | tozasertib -0.025 | doramapimod -0.027 | bafetinib -0.05 | [2] -0.007

VAT1 (UniProt Q99536)
inactive: lapatinib -0.022 | pictilisib -0.034 | crizotinib 0.026 | [1] -0.004 | duvelisib 0.001 | gandotinib -0.001 | tozasertib 0.003 | doramapimod -0.013 | bafetinib 0.025 | [2] -0.048

UNC13D (UniProt Q70J99)
inactive: lapatinib -0.032 | pictilisib -0.032 | crizotinib -0.038 | [1] 0.029 | duvelisib -0.039 | gandotinib -0.089 | tozasertib -0.015 | doramapimod 0.009 | bafetinib -0.066 | [2] 0.002

USF2 (UniProt Q15853)
inactive: lapatinib 0.02 | pictilisib 0.007 | crizotinib 0.031 | [1] 0.055 | duvelisib 0.054 | gandotinib 0.016 | tozasertib 0.143 | doramapimod -0.053 | bafetinib 0.006 | [2] -0.014

UQCC3 (UniProt Q6UW78)
inactive: lapatinib 0.22 | pictilisib -0.046 | [1] 0.356 | duvelisib 0.029 | gandotinib 0.137 | tozasertib 0.149 | bafetinib -0.129 | [2] 0.036

UTP20 (UniProt O75691)
inactive: lapatinib -0.041 | pictilisib -0.095 | crizotinib -0.077 | [1] 0.16 | duvelisib -0.056 | gandotinib -0.184 | tozasertib 0.11 | doramapimod -0.007 | bafetinib -0.061 | [2] 0.052

UTP4 (UniProt Q969X6)
inactive: lapatinib 0.03 | pictilisib 0.028 | crizotinib 0.046 | [1] 0.007 | duvelisib 0.003 | gandotinib -0.033 | tozasertib 0.039 | doramapimod -0.054 | bafetinib 0.027 | [2] 0.003

USP15 (UniProt Q9Y4E8)
inactive: lapatinib 0.005 | pictilisib 0.004 | crizotinib 0.023 | [1] 0.026 | duvelisib -0.006 | gandotinib -0.049 | tozasertib 0.009 | doramapimod -0.029 | bafetinib 0.049 | [2] 0

VCPIP1 (UniProt Q96JH7)
inactive: lapatinib -0.061 | pictilisib -0.053 | crizotinib -0.052 | [1] -0.059 | duvelisib -0.002 | gandotinib -0.038 | tozasertib -0.028 | doramapimod 0.025 | bafetinib -0.043 | [2] 0.1

ULK1 (UniProt O75385)
inactive: lapatinib 0.006 | crizotinib 0.138 | [1] 0.099 | duvelisib 0.012 | gandotinib -0.134 | tozasertib 0.092 | doramapimod 0.087 | [2] -0.136

UROD (UniProt H0Y5R6)
inactive: lapatinib -0.105 | pictilisib 0.13 | tozasertib 0.19 | bafetinib -0.407

URB2 (UniProt Q14146)
inactive: lapatinib -0.137 | crizotinib -0.052 | [1] 0.127 | duvelisib 0.028 | gandotinib -0.136 | tozasertib -0.137 | doramapimod -0.077 | [2] -0.086

UTP11 (UniProt Q9Y3A2)
inactive: lapatinib -0.029 | pictilisib -0.042 | crizotinib 0.032 | [1] -0.285 | duvelisib -0.015 | gandotinib 0.064 | tozasertib 0.251 | doramapimod 0.072 | bafetinib -0.793 | [2] 0.202

URB1 (UniProt O60287)
inactive: lapatinib 0.077 | crizotinib -0.18 | [1] -0.238 | duvelisib 0.018 | gandotinib 0.415 | tozasertib 0.104 | doramapimod 0.126 | [2] 0.281

UTP15 (UniProt Q8TED0)
inactive: lapatinib 0.008 | pictilisib 0.026 | crizotinib 0.031 | [1] -0.098 | duvelisib 0.059 | gandotinib 0.033 | tozasertib -0.011 | doramapimod -0.009 | bafetinib -0.037 | [2] 0.028

USP11 (UniProt P51784)
inactive: lapatinib -0.037 | pictilisib 0.014 | crizotinib -0.044 | [1] -0.016 | duvelisib 0.039 | gandotinib -0.031 | tozasertib 0 | doramapimod 0.032 | bafetinib -0.049 | [2] 0.028

VANGL2 (UniProt Q9ULK5)
inactive: lapatinib -0.071 | pictilisib -0.063 | crizotinib -0.362 | [1] 0.024 | duvelisib 0.1 | gandotinib 0.095 | doramapimod 0.016 | bafetinib -0.139 | [2] 0.054

USP47 isoform 4 (UniProt Q96K76)
inactive: lapatinib -0.035 | pictilisib -0.016 | crizotinib -0.022 | [1] 0.031 | duvelisib 0.001 | gandotinib -0.057 | tozasertib -0.006 | doramapimod -0.002 | bafetinib -0.034 | [2] -0.025

UQCR10 (UniProt Q9UDW1)
inactive: lapatinib -0.01 | crizotinib -0.05 | [1] -0.199 | duvelisib 0.011 | gandotinib 0.023 | tozasertib 0.005 | doramapimod 0.04 | [2] 0.188

USP42 (UniProt Q9H9J4)
inactive: lapatinib -0.1 | pictilisib -0.003 | crizotinib 0.018 | tozasertib 0.148 | doramapimod 0.01 | bafetinib 0.105

USF3 (UniProt Q68DE3)
inactive: lapatinib -0.058 | pictilisib -0.058 | tozasertib 0.146 | bafetinib -0.358

URM1 isoform 2 (UniProt Q9BTM9)
inactive: lapatinib 0.023 | pictilisib 0.166 | [1] 0.181 | duvelisib -0.013 | gandotinib -0.03 | tozasertib 0.158 | bafetinib 0.208 | [2] -0.037

Copied from the results shown (three entries):
VANGL2 (UniProt Q9ULK5)
inactive: lapatinib -0.071 | pictilisib -0.063 | crizotinib -0.362 | [1] 0.024 | duvelisib 0.1 | gandotinib 0.095 | doramapimod 0.016 | bafetinib -0.139 | [2] 0.054

USP47 isoform 4 (UniProt Q96K76)
inactive: lapatinib -0.035 | pictilisib -0.016 | crizotinib -0.022 | [1] 0.031 | duvelisib 0.001 | gandotinib -0.057 | tozasertib -0.006 | doramapimod -0.002 | bafetinib -0.034 | [2] -0.025

UQCR10 (UniProt Q9UDW1)
inactive: lapatinib -0.01 | crizotinib -0.05 | [1] -0.199 | duvelisib 0.011 | gandotinib 0.023 | tozasertib 0.005 | doramapimod 0.04 | [2] 0.188

Next results

USP46 (UniProt P62068)
inactive: lapatinib -0.198 | pictilisib -0.18 | crizotinib -0.024 | doramapimod 0.009 | bafetinib -0.147

UPF3A (UniProt Q9H1J1)
inactive: lapatinib -0.017 | pictilisib -0.086 | crizotinib 0.027 | [1] -0.04 | gandotinib 0.054 | tozasertib -0.055 | doramapimod -0.027 | bafetinib 0.029 | [2] 0.204

UTP23 (UniProt Q9BRU9)
inactive: lapatinib -0.041 | pictilisib -0.052 | crizotinib 0.002 | [1] 0.02 | duvelisib -0.025 | gandotinib -0.09 | doramapimod 0.031 | bafetinib 0.083 | [2] 0.032

UQCRQ (UniProt O14949)
inactive: lapatinib 0.004 | pictilisib 0.042 | crizotinib 0.007 | [1] 0.159 | duvelisib 0.003 | gandotinib -0.068 | tozasertib 0.008 | doramapimod 0.025 | bafetinib 0.043 | [2] -0.001

USP10 isoform 2 (UniProt Q14694)
inactive: lapatinib -0.01 | pictilisib -0.015 | crizotinib -0.03 | [1] -0.024 | duvelisib 0.009 | gandotinib -0.046 | tozasertib -0.014 | doramapimod -0.016 | bafetinib -0.014 | [2] 0.028

VEZT (UniProt F8W8C2)
inactive: lapatinib 0.099 | pictilisib -0.162 | crizotinib 0.153 | [1] -0.011 | gandotinib -0.035 | tozasertib -0.052 | doramapimod -0.106 | bafetinib -0.082 | [2] -0.049

VAPB (UniProt O95292)
inactive: lapatinib 0.011 | pictilisib 0.031 | crizotinib 0.026 | [1] -0.067 | duvelisib -0.01 | gandotinib 0.045 | tozasertib -0.002 | doramapimod 0.036 | bafetinib 0.009 | [2] 0.035

USB1 (UniProt Q9BQ65)
inactive: lapatinib 0.092 | crizotinib -0.05 | [1] 0.28 | duvelisib -0.02 | gandotinib -0.292 | tozasertib 0.056 | doramapimod 0.195 | [2] -0.014

UPF1 (UniProt Q92900)
inactive: lapatinib 0.006 | pictilisib -0.02 | crizotinib 0.03 | [1] 0.008 | duvelisib 0.009 | gandotinib 0.008 | tozasertib -0.036 | doramapimod 0.02 | bafetinib -0.001 | [2] -0.017

VIL1 (UniProt P09327)
inactive: lapatinib 0.107 | pictilisib 0.131 | crizotinib -0.02 | [1] 0.079 | duvelisib 0 | gandotinib -0.124 | tozasertib 0.009 | doramapimod 0.058 | bafetinib -0.171 | [2] 0.04

VIPAS39 (UniProt Q9H9C1)
inactive: lapatinib -0.038 | pictilisib -0.024 | crizotinib -0.01 | [1] -0.058 | duvelisib -0.027 | gandotinib 0.007 | tozasertib 0.086 | doramapimod 0.075 | bafetinib -0.029 | [2] 0.12

URI1 (UniProt O94763)
inactive: lapatinib -0.001 | pictilisib 0.01 | crizotinib 0.006 | [1] 0.02 | duvelisib -0.005 | gandotinib 0.018 | tozasertib 0.075 | doramapimod -0.018 | bafetinib -0.045 | [2] -0.012

USP7 (UniProt H3BND8)
inactive: lapatinib -0.006 | pictilisib 0.427 | bafetinib -0.421

USP5 (UniProt F5H571)
inactive: lapatinib -0.156 | pictilisib -0.237 | bafetinib -0.221
